The values that follow come from PubChem BioAssay AID1347423 (Functional Genomics Laboratory (NCATS/FGL), 2020).

About 210 (0.4%) of roughly 52,000 sequences were called active.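 How the source made its calls: active means gene whose silencing raises cell survival under the drug, median off-target-corrected z-score across its silencing RNAs 2 or more; inactive means the rest.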 The list shows a part of the results.

The experiment can be described thus: Resistance to Poly (ADP-Ribose) Polymerase inhibitor: Gene Identification via Genome-wide siRNA Screen. The conditions noted are these: mouse BRCA2 R2336H ES cells, olaparib, CellTiter-Glo viability; hits give high values. The essentials: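 Mouse BRCA2 R2336H ES cells were reverse-transfected with siRNA (20 nM final), treated at 48 h with 500 nM olaparib, and read by CellTiter-Glo after 72 h. Scores: MAD-based z per siRNA, median per gene, seed off-target correction.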
Regarding GGAGUUCAAGCAGAACAUUTT against Tpd52, the z-score is inactive: -2.09. The result for GCUAGAUGCAAAAUAUUCATT against Lbr reads inactive: 0.41. Turning to GGCUAUGUUAAUUUGUCCCTT against Hc, the z-score is inactive: 0.847. Take GCCUGACGGCACGUAUGUATT against Acox1: the z-score is inactive: 0.656. For “GGGCUUUUUCAACAGAGGCTT against 2010107G23Rik”, the z-score was inactive: -0.274. Take “GCUGUUAUAACCUUGUUACTT against 4930470D19Rik”: the z-score was inactive: 1.22. On to GCAGAGCGGGAUUUCAUUCTT against Sh3glb2, for which the z-score was inactive: -1.34. Consider GGACAAGUGUCAGAUAUCATT against Asah2, for which the z-score is inactive: 3.07. In the case of GCAGAGCUCUGUUAAGAAGTT against Pbp2, the z-score is inactive: 1.05.

Take “GGCCUAUAGGUUGGGCUCUTT against 2810439M11Rik”: the z-score is inactive: -1.42. As for GGUCUAUUCUGUUGAGUAATT against Glud1, the z-score is inactive: 2.01. For the sequence “GGAGCUGGAAGACACGAGATT against 4933409I22”, the z-score was inactive: -0.905. Consider GGUCCUGAAGAAAUCCGAUTT against Clybl, for which the z-score was inactive: 2.54. With “CAAGAUAACCAGGUUAAUCTT against 4930523C11Rik”, the z-score is inactive: -0.671. As for “GGAAUGGUCCCUCCAAUGATT against 2610317D23Rik”, the z-score is inactive: 0.515. The result for “GGGUGCCUAGCAGAUGAACTT against 5830484A20Rik” reads inactive: -1.43; that for GGGCUCCUUCCUUGAAAAGTT against Dclre1c, inactive: 0.338. The result for CCUUUACCGUAUCAGCGAGTT against Rassf6 reads inactive: -0.622; that for “GGUGGGAAGAGGAAUACACTT against A930037G23Rik”, inactive: -0.536. Consider “GGAUUUUUCAACUUAACGUTT against 1110007L15Rik”, for which the z-score is inactive: -0.108. Turning to GGACAGGAACCAAAAUGAGTT against Sfxn2, the z-score is inactive: -0.342. With GGAAGAAGAAGAUAAAGAATT against AF155546, the z-score was inactive: -1.65. As for “GGAAGGAAUUGGUUACCUATT against 4933440J22Rik”, the z-score was inactive: -1.04.

Turning to GGAAGAAUACCAAAAGGUUTT against Msra, the z-score was inactive: -0.206. As for “GCAACAUUGUAGAUUGAUATT against 2510049I19Rik”, the z-score was inactive: -1.06. As for GCUACUACGGCCAUUGUGATT against Fbln2, the z-score was inactive: -1.75. As to GGAUGAAGACCUUUCGGAGTT against Mapk8ip, the z-score is inactive: -0.374. As to GGCUGUUUUUACCCUACUUTT against V1rg1, the z-score was inactive: -1.25. GGCUCCAUUAAACUAAUCATT against Olfr1102: the z-score was inactive: 1.47.

Turning to “GCCAUGUUUCUACUGAUAGTT against 1700007K09Rik”, the z-score is inactive: -1.02.

Turning to “AGAGAGACUUAUGUCUUUUTT against 2610109H07Rik”, the z-score was inactive: -0.561. Turning to CCCUGUUUCUUCUCAAAGUTT against Mrgpra2, the z-score is inactive: 1.96.

For the sequence GGCAUUUAUUACUACCUGATT against Lancl1, the z-score is inactive: 1.28.

Regarding GCCUAAUGCCAACUCACAATT against Samd7, the z-score is inactive: -0.863. For GGAAGGACAGCCUUUUGAUTT against Cyp2j13 the value was inactive: 0.0214; for GGUUGGCUUCCUUAUCUUGTT against Cyp7b1, inactive: -0.131. In the case of CGACCAAUUAUAGUUUAUGTT against Zranb1, the z-score is inactive: 1.38. For GCUGGUAUCAGGAAUACCUTT against Cacna1e, the z-score is inactive: 2.07. For CGUAACUUUUUGCAUUUGATT against Anktm1 the value was inactive: 0.312. Regarding “GGAGCUCAUCUACAUGCACTT against 1300012G16Rik”, the z-score was inactive: -0.375. GGUGCUACAGAACGUAUGCTT against Fh1: the z-score was inactive: 1.33. The result for “CCCUUAAUAGACUUCUGAUTT against 2810405I11Rik” reads inactive: 1.53. Regarding CCCUUCAACUACAUGUUUUTT against Aicda, the z-score is inactive: 1.35. As for GGAAUUCAGCUUAAAACUGTT against Ctsl, the z-score was inactive: 1.81. Consider GCUGGGUUAUGAGAUUUCUTT against Tenc1, for which the z-score is inactive: -1.49. Turning to GGCCAACUGCCAAUUUGUGTT against Rnf10, the z-score was inactive: -0.478. Regarding “CGUGACCACAACUCAAGAATT against 9030625A04Rik”, the z-score was inactive: 1.58.

With “GGAUCCUAGCCUUUUAUCATT against C030018L16Rik”, the z-score is inactive: 1.22. As for CCGAGUAAUUGGAAGUGGUTT against Ldh1, the z-score is inactive: 1.02. As to “CCGCCUCUUUGAAGCCCAATT against 1110004D19Rik”, the z-score is inactive: -1.73. The result for GGAAUCAAAAUCUUUGAUGTT against Dab1 reads inactive: 0.584. In the case of “GGAUUUGGAAAUAUUAGAGTT against E330021D16Rik”, the z-score was inactive: 0.602. Regarding “GGACUACAGUCAUUAUUCATT against 4930518F03Rik”, the z-score is inactive: 0.681. Regarding GGUCUGUUCUGUACUGAAGTT against Usmg4, the z-score is inactive: -1.14. For GGUUCAGAAGAGCUGAUGATT against Ezh2 the value was inactive: 0.531; for GCAAUCCAUACAAGCUGUATT against Olfr1134, inactive: -0.726; for “GGGAAUUAUGGGCUUACCGTT against 4931414P19Rik”, inactive: -2.88. For GGUCAAUCAAUCGUACGAATT against Trar1 the value was inactive: -0.242; for GCUGCGACAAUUCAAUAUCTT against Rdh8, inactive: -0.377; for CCACUAAAAUCUUACUGGATT against Scn7a, inactive: 1.85. The result for CCUGACAAAAGAACCUUAUTT against Grit reads inactive: 0.24; that for GGCGAUUAUGGAAAAAUGUTT against Osbpl11, inactive: -0.782; that for “GCAAGUCAGACUCCUAGUGTT against 4930563E19Rik”, inactive: 2.35. Take GCUUAUUGUUCAACCCAACTT against Dpp3: the z-score is inactive: 0.839. In the case of GGAAGGAUGCUUCCUUGGATT against Stmn3, the z-score was inactive: 0.577. On to GAACAAUGCAGAGACAAUUTT against Olfr176, for which the z-score was inactive: -0.342.
